Laboratory results from PMC7782846.
No constants are given. Whether binding was seen depends on the method and setting. In cells and extracts the contact can be indirect. A yes stands for co-enrichment or nearness to the bait. Other partners may have been found.

T1: STING (bait of the mass spectrometry of STING-binding proteins) (UniProt Q3TBT3)
T1 sequence: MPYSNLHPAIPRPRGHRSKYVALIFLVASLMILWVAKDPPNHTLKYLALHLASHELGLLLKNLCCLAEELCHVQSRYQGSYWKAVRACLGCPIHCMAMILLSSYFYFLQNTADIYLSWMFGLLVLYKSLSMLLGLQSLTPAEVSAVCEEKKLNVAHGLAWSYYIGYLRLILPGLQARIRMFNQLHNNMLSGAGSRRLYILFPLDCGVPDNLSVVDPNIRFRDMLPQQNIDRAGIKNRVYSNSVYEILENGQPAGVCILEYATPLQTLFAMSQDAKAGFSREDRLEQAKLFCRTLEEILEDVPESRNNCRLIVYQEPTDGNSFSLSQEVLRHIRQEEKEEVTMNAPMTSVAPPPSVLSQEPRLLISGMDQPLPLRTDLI


Biological target: T1, STING (bait of the mass spectrometry of STING-binding proteins)
Assay: affinity purification with mass spectrometry; lysate (1% Triton X-100, 150 mM NaCl, pH 7.2) on anti-FLAG M2 Affinity Gel overnight at 4 °C, FLAG peptide elution, tryptic digest, LC-MS/MS

Binder | binding
H13 (protein, UniProt Q9D8V0 1-378) MDSAVSDPHNGSAEAGTPANGTTRPPSTPEGIALAYGSLLLMALLPIFFGALRSVRCARGKSSSDMPETITSRDAARFPIIASCTLLGLYLFFKIFSQEYINLLLSMYFFVLGILALSHTISPFMNKFFPANFPNRQYQLLFTQGSGENKEEIINYEFDTKDLVCLGLSSVVGVWYLLRKHWIANNLFGLAFSLNGVELLHLNNVSTGCILLGGLFIYDIFWVFGTNVMVTVAKSFEAPIKLVFPQDLLEKGLEADNFAMLGLGDIVIPGIFIALLLRFDISLKKNTHTYFYTSFAAYIFGLGLTIFIMHIFKHAQPALLYLVPACIGFPVLVALAKGEVAEMFSYEESNPKDPAAETESKEESTEASASKRLEKKEK | binds
Slc25a5 (protein, UniProt P51881 1-298) MTDAAVSFAKDFLAGGVAAAISKTAVAPIERVKLLLQVQHASKQITADKQYKGIIDCVVRIPKEQGVLSFWRGNLANVIRYFPTQALNFAFKDKYKQIFLGGVDKRTQFWRYFAGNLASGGAAGATSLCFVYPLDFARTRLAADVGKAGAEREFKGLGDCLVKIYKSDGIKGLYQGFNVSVQGIIIYRAAYFGIYDTAKGMLPDPKNTHIFISWMIAQSVTAVAGLTSYPFDTVRRRMMMQSGRKGTDIMYTGTLDCWRKIARDEGSKAFFKGAWSNVLRGMGGAFVLVLYDEIKKYT | binds
Ablim1 (protein, UniProt Q8K4G5 1-861) MPSLLGLKCLGKLCSSEIGKVPSPERASLRNSHRRLLIEDLSVPETPDPAHRRRGTVIHLVYLYSAGCGPPELRFSSYDPSVAHPQDPHHSSEKPVIHCHKCGEPCKGEVLRVQTKHFHIKCFTCKVCGCDLAQGGFFIKNGDYLCTLDYQRMYGTRCHGCGEFVEGEVVTALGKTYHPNCFACTICKRPFPPGDRVTFNGRDCLCQLCAQPMSSSPKEASCSSNCAGCGRDIKNGQALLALDKQWHLGCFKCKSCGKVLTGEYISKDGSPYCEKDYQGLFGVKCEACHQFITGKVLEAGDKHYHPSCARCSRCNQMFTEGEEMYLQGSTVWHPDCKQSTKTEEKLRPPNIPRSSSDFFYPKSLIRRTGRSPALQLLSPPCLTNSNKNPRQPTRTSSESIYSRPGSSIPGSPGHTIYAKVDNEILDYKDLAAIPKVKAIYDIERPDLITYEPFYTSGYEDKQERQSLGESPRTLSPTPSAEGYQDVRDRMIHRSTSQGSINSPVYSRHSYTPTTSRSPQHFHRPELLSPGVHRWSPLRTSSFSSTHSDSRPNPPFRHHFLPHVKGNEPSSGRNSPLPYRPDSRPLTPTYAQAPKHFHVPDQGINIYRKPPIYKQHAALAAQSKASEDIIKFSKFPAAQAPDPNEIPKIETDHWPGPPSLAAVGTDPRRRSSGREEDEEELLRRRQLQEEQLMKLNSGLGQLILKEEMEKESRERASLASRYDSPLHSASHAPSSKTSSLPGYGKNGLHRPVSTDFAQYNSYGDISGGVRDYQTLPDGHMPAVRMDRGVSMPNMLEPKIFPYEMLMVTNRGRNKILRDVDRTRLERHLAPEVFWEIFGMSIQEFDKLPLWRRNDMKKKAKLF | binds
Clptm1l (protein, UniProt Q8BXA5 1-539) MWSGRSSFTSLVVGVFLVYVVHTCWVMYGIVYTRPCSGDSNCIQPYLALRPKLQLSVYTTTRSSLGAENNVDLILNVEDFDVDSKFERTVNVSVPKKTRNNGTLYAYIFLHHAGILPWQDGKQVHVVSTLTTYMIPKPEEINLLTGESATQQQIEAEKKPSNALDEPVSHWRPRLTLNVMVDDFVFDGSSLPADVHRYMKMIQLGKTVHYLPILFIDQLSNRVKDLMVINRSTTELPLTVSYDKISLGRLRFWIHMQDAVYSLQQFGFSEKDADELKGIFVDTNLYLLALTFFVAAFHLLFDFLAFKSDISFWKKKKSMIGMSTKAVLWRCFSTVVIFLFLLDEQTSLLVLIPAGVGAAIELWKVKKALKITVAWRGLRPVFQFGTHSESERKTEKYDAQAMKYLSYLLYPLCVGGAVYSLLNIKYKSWYSWLINSFVNGVYAFGFLFMLPQLFVNYKMKSVAHLPWKAFTYKAFNTFIDDVFAFIITMPTSHRLACFRDDVVFLVYLYQRWLYPVDKSRVNEFGESYEEQPKRKPHPD | binds
Mars (protein, UniProt Q68FL6 1-902) MRLFVSEGSPGSLPVLAAAARARGRAELLISTVGPEECVVPFLTRPKVPVLQLDSGNYLFSASAICRYFFLLCGWEQDDLTNQWLEWEATELQPVLSAALHCLVVQGKKGEDILGPLRRVLTHIDHSLSRQNCPFLAGDTESLADIVLWGALYPLLQDPAYLPEELGALQSWFQTLSTQEPCQRAAETVLKQQGVLALRLYLQKQPQPQPPPPEGRTVSNELEEEELATLSEEDIVTAVAAWEKGLESLPPLKLQQHPVLPVPGERNVLITSALPYVNNVPHLGNIIGCVLSADVFARYCRLRQWNTLYLCGTDEYGTATETKAMEEGLTPREICDKYHAIHADIYRWFGISFDTFGRTTTPQQTKITQDIFQRLLTRGFVLRDTVEQLRCERCARFLADRFVEGVCPFCGYEEARGDQCDRCGKLINAIELKKPQCKICRSCPVVRSSQHLFLDLPKLEKRLEDWLGKTVPGSDWTPNARFIIRSWLRDGLKPRCITRDLKWGTPVPLEGFEDKVFYVWFDATIGYVSITANYTDQWEKWWKNPEQVDLYQFMAKDNVPFHGLVFPCSVLGAEDNYTLVKHIIATEYLNYEDGKFSKSRGIGVFGDMAKDTGIPADIWRFYLLYIRPEGQDSAFSWTDLLIKNNSELLNNLGNFINRAGMFVSKFFGGCVPEMALTPDDRRLVAHVSWELQHYHQLLEKVRIRDALRSILTISRHGNQYIQVNEPWKRIKGGEMDRQRAGTVTGMAVNMAALLSVMLQPYMPTVSSTIQTQLQLPPAACRILATSFICTLPAGHRIGTVSPLFQKLENDQIENLRQRFGGGQAKGSPKPAAVEAVTAAGSQHIQTLTDEVTKQGNVVRELKAQKADKNQVAAEVAKLLDLKKQLALAEGKPIETPKGKKKK | binds
Hacd3 (protein, UniProt Q8K2C9 1-362) METQVLTPHVYWAQRHRELYLRVELSDVQNPAISITDNVLHFKAQGHGAKGDNVYEFHLEFLDLVKPEPAYRLTQRQVNITVQKKGSHWWERLTKQEKRPLFLAPDFDRWLDESDAEMELRAKEEERLNKLRLEREGSPETLTNLKKGYLFMYNLVQLLGFSWIFVNLTVRFFILGKESFYDTFHNVADMMYFCQMLALVETLNAAIGVTSTPVLPALIQFLGRNFILFLVFGTMEEMQNKAVVFFVFYSWSAIEIFRYPFYMLSCIDMDWKVLTWLRYTMWIPLYPLGCLSEAVAVIQSIPVFNESGRFSFTLPYPVKMKVRFSFFLQVYLVMLFLGLYINFRHLYKQRRRRYGQKKKKLH | binds
Myl12a (protein, UniProt Q6ZWQ9 1-172) MSSKRAKTKTTKKRPQRATSNVFAMFDQSQIQEFKEAFNMIDQNRDGFIDKEDLHDMLASMGKNPTDEYLDAMMNEAPGPINFTMFLTMFGEKLNGTDPEDVIRNAFACFDEEAIGTIQEDYLRELLTTMGDRFTDEEVDELYREAPIDKKGNFNYIEFTRILKHGAKDKDD | binds

Now from value to binder:

binding | Binder
binds | Slc25a4 (protein, UniProt P48962 1-298) MGDQALSFLKDFLAGGIAAAVSKTAVAPIERVKLLLQVQHASKQISAEKQYKGIIDCVVRIPKEQGFLSFWRGNLANVIRYFPTQALNFAFKDKYKQIFLGGVDRHKQFWRYFAGNLASGGAAGATSLCFVYPLDFARTRLAADVGKGSSQREFNGLGDCLTKIFKSDGLKGLYQGFSVSVQGIIIYRAAYFGVYDTAKGMLPDPKNVHIIVSWMIAQSVTAVAGLVSYPFDTVRRRMMMQSGRKGADIMYTGTLDCWRKIAKDEGANAFFKGAWSNVLRGMGGAFVLVLYDEIKKYV
binds | Ncln (protein, UniProt Q8VCM8 43-563) AHEFTVYRMQQYDLQGQPYGTRNAVLNTEARTVDADVLSRRCVLMRLLDFSYEHYQKALRQSAGAVVIILPRAMAAVPQDVVRQFMEIEPEMLAMETVVPVYFAVEDEALLSIYEQTQAASASQGSASAAEVLLHTATANGFQMVTSGAQSQAVSDWLITSVEGRLTGLGGEDLPTIVIVAHYDAFGVAPWLSLGADSNGSGISVLLELARLFSRLYTYKRTHAAYNLLFFASGGGKFNYQGTKRWLEDSLDHTDSSLLQDNVAFVLCLDTVGRGSHLRLHVSKPPREGTLQHAFLRELETVAAHQFPDVSFSMVHKKINLADDVLAWEHERFAIRRLPAFTLSHLESHRAGPRSSIMDVRSRVDSKTLTRNTRIIAEALTRVIYNLTEKGTPPDMPVFTEQMQVQEEQIDSVMDWLTNQPRAAQLLDKDGTFLSTLEHFLSRYLKDVRQHHVKADKRDPEFVFYDQLKQVMNAYRVKPAIFDLLLALCIGAYLGMAYTAVQHFHVLYKTVQRLLLKAKAQ
binds | Hsd17b12 (protein, UniProt O70503 1-312) MECAPPAAGFLYWVGASTIAYLALRASYSLFRAFQVWCVGNEALVGPRLGEWAVVTGGTDGIGKAYAEELAKRGMKIVLISRSQDKLNQVSNNIKEKFNVETRTIAVDFSLDDIYDKIKTGLSGLEIGVLVNNVGMSYEYPEYFLEIPDLDNTIKKLININVLSVCKVTRLVLPGMVERSKGVILNISSASGMLPVPLLTIYSATKAFVDFFSQCLHEEYKSKGIFVQSVMPYLVATKLAKIQKPTLDKPSAETFVKSAIKTVGLQTRTTGYVIHSLMGSINSIMPRWMYFKIIMGFSKSLRNRYLKKRKKN
binds | Lpcat1 (protein, UniProt Q3TFD2 1-534) MRLRGRGPRAAPSSSSGAGDARRLAPPGRNPFVHELRLSALQKAQVAFMTLTLFPIRLLFAAFMMLLAWPFALLASLGPPDKEPEQPLALWRKVVDFLLKAIMRTMWFAGGFHRVAVKGRQALPTEAAILTLAPHSSYFDAIPVTMTMSSIVMKAESRDIPIWGTLIRYIRPVFVSRSDQDSRRKTVEEIKRRAQSNGKWPQIMIFPEGTCTNRTCLITFKPGAFIPGVPVQPVVLRYPNKLDTITWTWQGPGALKILWLTLCQFQNQVEIEFLPVYCPSEEEKRNPALYASNVRRVMAKALGVSVTDYTFEDCQLALAEGQLRLPADTCLLEFARLVRGLGLKPENLEKDLDKYSESARMKRGEKIRLPEFAAYLEVPVSDALEDMFSLFDESGGGEIDLREYVVALSVVCRPSQTLATIQLAFKMYGSPEDGSIDEANLSCILKTALGVSELTVTDLFQAIDQEDKGRITFDDFCGFAEMYPDYAEDYLYPDQTHFDSCAQTPPAPTPNGFCIDFSPENSDFGRKNSCKKAD
